Our source for the binding values is paper PMC2789240, “Comparative structural, kinetic and inhibitor studies of Trypanosoma brucei trypanothione reductase with T. cruzi^” (Molecular and Biochemical Parasitology, 2010).

By UniProt entry, the sequences of proteins in these tests, tags left out.
UniProt P39051: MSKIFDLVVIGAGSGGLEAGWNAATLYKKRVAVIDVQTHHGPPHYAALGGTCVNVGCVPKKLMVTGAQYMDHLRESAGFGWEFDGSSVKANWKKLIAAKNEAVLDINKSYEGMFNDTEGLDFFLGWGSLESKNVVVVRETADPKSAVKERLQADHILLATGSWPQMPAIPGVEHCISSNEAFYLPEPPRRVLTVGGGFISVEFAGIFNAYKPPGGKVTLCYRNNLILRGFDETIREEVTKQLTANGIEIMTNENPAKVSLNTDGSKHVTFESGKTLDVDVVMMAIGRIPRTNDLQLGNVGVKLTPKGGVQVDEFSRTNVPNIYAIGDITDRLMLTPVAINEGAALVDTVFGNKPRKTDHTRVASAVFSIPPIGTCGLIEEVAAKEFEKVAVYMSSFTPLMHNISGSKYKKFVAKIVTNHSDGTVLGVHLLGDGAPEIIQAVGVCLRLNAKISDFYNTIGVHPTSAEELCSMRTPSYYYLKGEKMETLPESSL

In the assay the target is Trypanosoma brucei brucei trypanothione reductase (T. b. brucei) (UniProt P39051). Briefly: crystal structure; hanging drop, 20 °C, 0.1 M bis-Tris propane pH 8.0, 5% PEG 400, 2 M ammonium sulphate; 2.3 Å; two molecules per asymmetric unit; both purified.

Results are given in words; binding and its absence hold for the method and conditions named. Some entries that bind do so weakly or less than the wild type.

Take “Trypanosoma brucei brucei trypanothione reductase (from UniProt P39051 1-492) (enzyme)”: the binding result is recorded as “binds”.
